Results on one molecule are retold here after paper PMC4742146.

Protein sequences, listed by entry. Tags and fused reporters are not part of them. Lines headed by an entry give the natural chain unless they say otherwise; changes in a name come on top.
UniProt P35222: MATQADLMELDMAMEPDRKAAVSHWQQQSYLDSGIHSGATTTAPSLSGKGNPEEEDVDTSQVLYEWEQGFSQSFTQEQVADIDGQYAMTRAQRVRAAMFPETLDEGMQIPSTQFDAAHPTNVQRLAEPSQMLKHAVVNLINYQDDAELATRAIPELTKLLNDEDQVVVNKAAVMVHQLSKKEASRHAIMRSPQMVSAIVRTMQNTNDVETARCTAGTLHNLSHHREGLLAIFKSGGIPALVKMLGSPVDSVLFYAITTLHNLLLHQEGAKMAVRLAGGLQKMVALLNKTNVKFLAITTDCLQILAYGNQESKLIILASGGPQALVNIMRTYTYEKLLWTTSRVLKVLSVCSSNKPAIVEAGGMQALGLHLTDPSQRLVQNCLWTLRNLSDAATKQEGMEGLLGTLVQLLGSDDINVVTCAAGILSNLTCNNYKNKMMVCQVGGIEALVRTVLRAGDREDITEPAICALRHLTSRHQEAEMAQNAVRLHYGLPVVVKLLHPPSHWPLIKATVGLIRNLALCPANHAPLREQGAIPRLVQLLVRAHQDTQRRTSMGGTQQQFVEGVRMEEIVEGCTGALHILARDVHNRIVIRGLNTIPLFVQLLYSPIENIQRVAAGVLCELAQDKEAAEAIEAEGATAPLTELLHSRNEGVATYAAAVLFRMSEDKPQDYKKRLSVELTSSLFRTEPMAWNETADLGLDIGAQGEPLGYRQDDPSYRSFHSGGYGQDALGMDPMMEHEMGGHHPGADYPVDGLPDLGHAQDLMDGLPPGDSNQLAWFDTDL

Common to all, as to test: co-IP; COS-7 cells transfected with His-MAGI3 and Flag-β-catenin WT, T779A or L781A; lysates immunoprecipitated with anti-Flag affinity gel, blotted with anti-His
In experiment [1] the target is Flag-β-catenin T779A (UniProt P35222).
The target in experiment [2] is Flag-β-catenin L781A (UniProt P35222).
The target of experiment [3] is Flag-tagged wild-type β-catenin (UniProt P35222).

Results are given in words; binding and its absence hold for the method and conditions named. Binding seen in cells or lysates may run through a third protein. Some entries that bind do so weakly or less than the wild type. Sequences can lack the tags named with a protein.

B1: His-MAGI3 (protein, UniProt Q5TCQ9 1-1481)
chain: MSKTLKKKKHWLSKVQECAVSWAGPPGDFGAEIRGGAERGEFPYLGRLREEPGGGTCCVVSGKAPSPGDVLLEVNGTPVSGLTNRDTLAVIRHFREPIRLKTVKPGKVINKDLRHYLSLQFQKGSIDHKLQQVIRDNLYLRTIPCTTRAPRDGEVPGVDYNFISVEQFKALEESGALLESGTYDGNFYGTPKPPAEPSPFQPDPVDQVLFDNEFDAESQRKRTTSVSKMERMDSSLPEEEEDEDKEAINGSGNAENRERHSESSDWMKTVPSYNQTNSSMDFRNYMMRDETLEPLPKNWEMAYTDTGMIYFIDHNTKTTTWLDPRLCKKAKAPEDCEDGELPYGWEKIEDPQYGTYYVDHLNQKTQFENPVEEAKRKKQLGQVEIGSSKPDMEKSHFTRDPSQLKGVLVRASLKKSTMGFGFTIIGGDRPDEFLQVKNVLKDGPAAQDGKIAPGDVIVDINGNCVLGHTHADVVQMFQLVPVNQYVNLTLCRGYPLPDDSEDPVVDIVAATPVINGQSLTKGETCMNPQDFKPGAMVLEQNGKSGHTLTGDGLNGPSDASEQRVSMASSGSSQPELVTIPLIKGPKGFGFAIADSPTGQKVKMILDSQWCQGLQKGDIIKEIYHQNVQNLTHLQVVEVLKQFPVGADVPLLILRGGPPSPTKTAKMKTDKKENAGSLEAINEPIPQPMPFPPSIIRSGSPKLDPSEVYLKSKTLYEDKPPNTKDLDVFLRKQESGFGFRVLGGDGPDQSIYIGAIIPLGAAEKDGRLRAADELMCIDGIPVKGKSHKQVLDLMTTAARNGHVLLTVRRKIFYGEKQPEDDSSQAFISTQNGSPRLNRAEVPARPAPQEPYDVVLQRKENEGFGFVILTSKNKPPPGVIPHKIGRVIEGSPADRCGKLKVGDHISAVNGQSIVELSHDNIVQLIKDAGVTVTLTVIAEEEHHGPPSGTNSARQSPALQHRPMGQSQANHIPGDRSALEGEIGKDVSTSYRHSWSDHKHLAQPDTAVISVVGSRHNQNLGCYPVELERGPRGFGFSLRGGKEYNMGLFILRLAEDGPAIKDGRIHVGDQIVEINGEPTQGITHTRAIELIQAGGNKVLLLLRPGTGLIPDHGDWDINNPSSSNVIYDEQSPLPPSSHFASIFEESHVPVIEESLRVQICEKAEELKDIVPEKKSTLNENQPEIKHQSLLQKNVSKRDPPSSHGHSNKKNLLKVENGVTRRGRSVSPKKPASQHSEEHLDKIPSPLKNNPKRRPRDQSLSPSKGENKSCQVSTRAGSGQDQCRKSRGRSASPKKQQKIEGSKAPSNAEAKLLEGKSRRIAGYTGSNAEQIPDGKEKSDVIRKDAKQNQLEKSRTRSPEKKIKRMVEKSLPSKMTNKTTSKEVSENEKGKKVTTGETSSSNDKIGENVQLSEKRLKQEPEEKVVSNKTEDHKGKELEAADKNKETGRFKPESSSPVKKTLITPGPWKVPSGNKVTGTIGMAEKRQ
As for B1, the values for the binding result in experiment [1], in experiment [2] and in experiment [3] were “no binding”, “no binding” and “binds”, respectively.
